Results from patent publication US20220380432A1, “Acylated Calcitonin Mimetics” (KeyBioscience AG, priority 2018, published 2022).
Part of at least one peptide drawing is inferred or uncertain, most often the ends. Numbered stars: 1 amine (or outer) side, 2 acyl side, 3 side chain; on linkers, the order of the positions; unused ones are H or OH. Bridge positions count the residues as written; N and C are the ends. Square brackets hold non-standard residues; d marks the D form. Side chains are listed from the residue outwards. Peptide text beside a SMILES is read from it. * marks the point of attachment. C18 diacid = O=C(O)CCCCCCCCCCCCCCCCC(=O)*; γGlu = O=C(O)[C@H](CCC(=O)[*:2])N[*:1]; AEEA = NCCOCCOCC(=O)O; Aib = CC(C)(N)C(=O)O

Tests used:
[1] = target: T1, Calcitonin Receptor (CTR) (Homo sapiens, UniProt P30988); test: Prolonged CTR response: β-arrestin accumulation over 3-72 h, U2OS-CALCR cells; format: cell-based; conditions: 10 nM peptide, tAUC 0-72 h
T1 construct: host or cells: U2OS
T1 sequence (P30988 25-474): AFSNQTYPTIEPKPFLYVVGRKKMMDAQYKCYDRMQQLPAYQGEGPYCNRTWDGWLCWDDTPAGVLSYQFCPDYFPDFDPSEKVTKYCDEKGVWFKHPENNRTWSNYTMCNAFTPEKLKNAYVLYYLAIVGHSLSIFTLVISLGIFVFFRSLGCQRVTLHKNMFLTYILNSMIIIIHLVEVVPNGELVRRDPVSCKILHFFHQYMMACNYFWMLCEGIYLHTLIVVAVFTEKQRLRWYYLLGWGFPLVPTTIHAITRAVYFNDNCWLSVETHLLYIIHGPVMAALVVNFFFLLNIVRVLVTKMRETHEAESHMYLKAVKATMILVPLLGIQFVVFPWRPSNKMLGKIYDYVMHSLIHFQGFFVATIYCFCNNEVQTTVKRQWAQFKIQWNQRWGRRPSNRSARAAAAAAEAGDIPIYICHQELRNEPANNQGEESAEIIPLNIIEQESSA

Amylin Receptor (AMY-R) = target: T2, Amylin Receptor (AMY-R) (Homo sapiens, UniProt P30988); test: PathHunter β-arrestin recruitment assay, CHO-K1 CALCR+RAMP3 (AMY-R) cells; format: cell-based; conditions: read-out: EC50 on the AMYR
T2 construct: host or cells: CHO-K1
T2 sequence (P30988 25-474): T1 sequence (P30988 25-474)
T2 sequence (O60896 24-148 partner): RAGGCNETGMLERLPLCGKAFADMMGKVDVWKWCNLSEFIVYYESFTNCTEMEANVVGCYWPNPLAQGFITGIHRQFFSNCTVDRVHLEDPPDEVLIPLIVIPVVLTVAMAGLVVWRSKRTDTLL

SMILES: CC(=O)N[C@H]1CSSC[C@@H](C(=O)NC(C)(C)C(=O)N[C@@H](CC(C)C)C(=O)NCC(=O)N[C@@H](CCCCNC(=O)COCCOCCNC(=O)COCCOCCNC(=O)CC[C@H](NC(=O)CCCCCCCCCCCCCCCCC(=O)O)C(=O)O)C(=O)N[C@@H](CC(C)C)C(=O)N[C@@H](CO)C(=O)N[C@@H](CCC(N)=O)C(=O)N[C@@H](CC(=O)O)C(=O)N[C@@H](CC(C)C)C(=O)N[C@@H](Cc2c[nH]cn2)C(=O)N[C@@H](CCCNC(=N)N)C(=O)N[C@@H](CC(C)C)C(=O)N[C@@H](CCC(N)=O)C(=O)N[C@H](C(=O)N[C@@H](Cc2ccc(O)cc2)C(=O)N2CCC[C@H]2C(=O)N[C@@H](CCCCN)C(=O)N[C@H](C(=O)N[C@@H](CC(=O)O)C(=O)N[C@H](C(=O)NCC(=O)N[C@@H](C)C(=O)N[C@@H](CC(N)=O)C(=O)N[C@@H](C)C(=O)N2CCC[C@H]2C(N)=O)C(C)C)[C@@H](C)O)[C@@H](C)O)NC(=O)[C@H]([C@@H](C)O)NC(=O)[C@H](CO)NC(=O)[C@H](CC(C)C)NC(=O)[C@H](CC(N)=O)NC(=O)[C@H](CO)NC1=O [KBP-356] (Ac-CSNLSTC[Aib]LGK([AEEA-AEEA-γGlu-C18 diacid])LSQDLHRLQTYPKTDVGANAP-NH2; disulfide 1-7 (inferred))
- U2OS (CTR) β-arrestin Prolonged CTR response (10 nM) tAUC value 0-72 h [1]: 2512 ± 295
- EC50 (Amylin Receptor (AMY-R)): ~5 nM
